Some of the results follow. Shown are side measurements of this screen, not its main read-out; they come without a call. The list favours compounds with an active or inconclusive main result. Words in brackets tell the shape of the fitted curve; partial curves, single points and poor fits give uncertain potencies.

The nature of the experiment: qHTS Assay for Lipid Storage Modulators in Drosophila S3 Cells.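 As to cell number change: cells counted by Cell Tracker Red CMTPX staining in the red channel.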 The following applies: BODIPY lipid droplet fluorescence, 18-24 h; for cell number change: measured here: cell count max response, cells fed with added oleic acid. Summed up: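 Drosophila S3 cells loaded with oleic acid (400 uM, as added) and compounds at several concentrations; lipid droplets imaged by 488-nm laser-scanning cytometry, 500–530 nm intensity and object ratio to cell channel. Percent activity normalized to 20 uM Triacsin C.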

[1] abbreviates: measured here: cell number channel AC50, cells fed with added oleic acid.
Where [2] appears, read: measured here: lipid fluorescence (Fed channel) AC50, cells fed with added oleic acid.

Turning to `COc1ccc(N2C(=O)CC(n3cnc4ccccc43)C2=O)cc1` (configuration not stated), the cell number change was found to be 1.91%. On to `Cc1ccccc1N=C(NOCc1ccc(Cl)cc1Cl)c1nonc1N`, for which the cell number change is -59%. Further, the concentration at half-maximal activity (AC50) under setting [1] is 8.2 µM [falling, partial curve]. In addition, the concentration at half-maximal activity (AC50) under setting [2] was 13 µM [falling, partial curve].

On to `COc1cccc(NC(=S)/C(=C(\[O-])c2ccc(C)c([N+](=O)[O-])c2)[n+]2ccccc2)c1`, for which the cell number change amounted to 67.8%. Besides, the half-maximal activity concentration (AC50) under setting [1] was 8.2 µM [rising, partial curve]. As for `Fc1ccccc1-c1csc(=Nc2cccnc2)n1CCCn1ccnc1`, the cell number change was -3.77%. For the same compound, the concentration at half-maximal activity (AC50) under setting [2] was 0.184 µM [rising, partial curve, poor fit].

Regarding `O=C(NNS(=O)(=O)c1cc(Cl)cc(Cl)c1)c1sccc1-n1cccc1`, the cell number change is 12.9%. Besides, under setting [2], the concentration at half-maximal activity (AC50) is 18.4 µM [rising, single point].

As for `O=C(Cn1nnc(-c2ccccc2)n1)Nc1ccc2c(c1)OCO2`, the cell number change was 44.9%. Also, the AC50 under setting [1] is 16.4 µM [rising, single point]. For `COc1ccc(/C=N/N=C2/NC(=O)C(CC(=O)O)S2)cc1OS(=O)(=O)c1ccccc1` (configuration not stated), the cell number change is -19.9%. Further, under setting [2], the AC50 was 6.51 µM [falling, single point]. As for `O=C(N/N=C/c1ccc2c(c1)OCO2)c1ccc(Cl)cc1Cl`, the cell number change is -9.52%. For the same compound, under setting [2], the concentration at half-maximal activity (AC50) was 0.058 µM [falling, full curve, poor fit].

Turning to `COC(=O)[C@H](CCSC)NC(=O)Nc1ccc(OC)cc1OC`, the cell number change was found to be 1.17%. Regarding `COc1ccc(CNC(=O)CS(=O)CC(=O)O)cc1OC` (configuration not stated), the cell number change was 32.8%. Take `CCOc1ccc(S(=O)(=O)n2nnc3ccccc32)cc1C`: the cell number change was found to be 55.8%. Under setting [1], the concentration at half-maximal activity (AC50) was 7.31 µM [rising, full curve]. The AC50 under setting [2] is 23.1 µM [falling, single point]. With `O=C(CCC(=O)c1ccc(F)cc1)Nc1cccnc1`, the cell number change is 14%. Also, the half-maximal activity concentration (AC50) under setting [2] was 0.517 µM [rising, full curve, poor fit]. In the case of `O=C(NCc1ccccn1)C1CCCN(S(=O)(=O)c2cccc3nsnc23)C1` (configuration not stated), the cell number change came out at 14.1%. Besides, under setting [2], the half-maximal activity concentration (AC50) is 0.184 µM [rising, full curve, poor fit]. As to `COc1cc(/C=N/NC(=O)c2ccc(C)nc2)cc([N+](=O)[O-])c1O`, the cell number change was found to be 11.1%. For the same compound, the AC50 under setting [2] was 0.13 µM [falling, full curve, poor fit]. As to `Cc1cc(Br)cc2cn[nH]c12`, the cell number change was -1.19%. For the same compound, the AC50 under setting [1] is 4.61 µM [rising, partial curve]. Consider `N#C/C(=C\c1ccc(N2CCCCC2)o1)C(=O)Nc1cccc(Br)c1`, for which the cell number change is -52.5%. Moreover, the AC50 under setting [1] was 3.66 µM [falling, partial curve]. Moreover, the AC50 under setting [2] was 29.1 µM [falling, single point]. In the case of `O=C(CSc1ccccc1)NC1CCCCCC1`, the cell number change was -27.6%. Further, under setting [2], the AC50 was 28.2 µM [falling, single point].

Take `CC(C)c1nc2cc(C(=O)N3CCN(c4cnccn4)CC3)ccc2o1`: the cell number change was -40.5%. Further, the half-maximal activity concentration (AC50) under setting [1] was 29.1 µM [falling, single point]. Moreover, the concentration at half-maximal activity (AC50) under setting [2] is 23.1 µM [falling, partial curve, poor fit]. On to `O=C1C=C(NCCOC23CC4CC(CC(C4)C2)C3)C2(CCCCC2)O1`, for which the cell number change is -45%. Besides, under setting [1], the AC50 was 29.1 µM [falling, single point].

With `COC(=O)c1cc(C)sc1NC(=O)CCc1ccccc1`, the cell number change amounted to 9.97%. Also, the concentration at half-maximal activity (AC50) under setting [2] was 29.1 µM [falling, single point]. Take `O=C(O)c1cccc(-n2cccc2/C=N/O)c1`: the cell number change was -16.3%. The AC50 under setting [2] is 0.00461 µM [falling, full curve, poor fit]. In the case of `CNc1ccccc1C(C)(C)c1cc(-c2cccc([N+](=O)[O-])c2)no1`, the cell number change was -21.5%. Also, under setting [2], the concentration at half-maximal activity (AC50) was 0.58 µM [falling, single point]. As for `Cc1ccc2nc(NC(=O)CN3CCN(c4ccccn4)CC3)sc2c1`, the cell number change turned out to be 36.2%. Also, the half-maximal activity concentration (AC50) under setting [1] is 11.6 µM [rising, partial curve, poor fit]. As for `CCN1CCN(C(=O)CN(c2cc(OC)ccc2OC)S(C)(=O)=O)CC1`, the cell number change worked out at 4.67%. Further, the concentration at half-maximal activity (AC50) under setting [2] was 6.51 µM [falling, single point].

As to `CC1CCCN(CC(O)COc2ccc(S(=O)(=O)N3CCCC3)cc2[N+](=O)[O-])C1` (configuration not stated), the cell number change was -8.41%. Regarding `COc1ccc2cc(C(=O)O)ccc2c1`, the cell number change amounted to 161%. Also, the half-maximal activity concentration (AC50) under setting [2] is 6.51 µM [falling, single point]. Regarding `O=S(=O)(c1cccc(S(=O)(=O)N2CCC(N3CCCCC3)CC2)c1)N1CCOCC1`, the cell number change is 3.23%. Still for that read-out and setting: for `O=C1CCCc2nc(N3CCN(C(c4ccccc4)c4ccccc4)CC3)ncc21` the value was -3.56%.

For the compound `CCOc1ccccc1NC(=O)CCCCCN1C(=O)[C@@H]2Cc3ccccc3CN2C1=O`, the cell number change stood at 0.236%. As to `O=C(OCC(=O)N1CCN(C(=O)c2ccco2)CC1)c1sc2ccccc2c1Cl`, the cell number change was -19%. Moreover, the AC50 under setting [2] is 4.61 µM [falling, full curve].

As to `CCc1cc(C(=O)NCC(c2ccc(OC)cc2)N2CCOCC2)sc1C` (configuration not stated), the cell number change was 91.5%. Further, the concentration at half-maximal activity (AC50) under setting [1] was 8.2 µM [rising, partial curve]. Regarding `O=C(CNC(=O)c1ccccc1F)N/N=C/c1cccnc1`, the cell number change was -27.2%. For the compound `Cc1ccsc1/C=N/n1c(-c2cc(-c3ccccc3)n[nH]2)n[nH]c1=S`, the cell number change was -52.5%. Under setting [1], the half-maximal activity concentration (AC50) is 14.6 µM [falling, partial curve, poor fit]. The AC50 under setting [2] is 16.4 µM [falling, single point]. For the compound `Cc1ccccc1Cn1c(=O)n(CCC(=O)NCc2ccc3c(c2)OCO3)c(=O)c2ccccc21`, the cell number change is 17.4%. Besides, under setting [2], the half-maximal activity concentration (AC50) was 29.1 µM [rising, single point]. Take `Cc1ccc(C)c(S(=O)(=O)N2CC(=O)Nc3ccccc32)c1`: the cell number change was found to be 19.2%. Further, the half-maximal activity concentration (AC50) under setting [2] was 3.66 µM [rising, single point]. In the case of `CC(=O)NC1=NC(=O)/C(=C/c2cn(C(C)=O)nc2-c2ccccc2)S1`, the cell number change came to 22.8%. In addition, the AC50 under setting [2] is 29.1 µM [rising, single point]. With `Cc1ccc(S(=O)(=O)c2c[nH]c3cc4c(cc3c2=O)OCO4)cc1`, the cell number change is 30.8%. In addition, the AC50 under setting [1] is 1.64 µM [rising, full curve]. Moreover, the half-maximal activity concentration (AC50) under setting [2] was 2.06 µM [rising, partial curve].

On to `Cc1cc(C)n2nc(C(=O)OCC(=O)Nc3ccc4c(c3)OCO4)nc2n1`, for which the cell number change is -17.9%. Turning to `NS(=O)(=O)c1ccc(CCNc2nc3c(-c4cccc(F)c4)nnn3c3ccccc23)cc1`, the cell number change was 7.91%. Under setting [2], the AC50 is 3.26 µM [falling, single point]. For the compound `CN(C(=O)CN1CCN(c2ccccc2F)CC1)C1CCCc2ccccc21` (configuration not stated), the cell number change was found to be 7.69%. Further, the AC50 under setting [2] is 6.51 µM [rising, single point].

The record behind these values is PubChem BioAssay AID2685 (National Center for Advancing Translational Sciences (NCATS), 2010).
